This passage reports IC50 results from ChEMBL document CHEMBL5036362, “Salidroside Promotes Sensitization to Doxorubicin in Human Cancer Cells by Affecting the PI3K/Akt/HIF Signal Pathway and Inhibiting the Expression of Tumor-Resistance-Related Proteins” (J Nat Prod, 2022).

As usually defined, the pIC50 is the IC50 on a negative log10 scale, so that one unit is a factor of ten.

In the test the test system is HeLa. The test is described as follows: Antiproliferative activity against human HeLa cells assessed as inhibition of cell proliferation measured after 48 hrs by CCK-8 assay. The class given is functional, cell-based.

pIC50: −log10 of the molar value.

For the compound `COc1cccc2c1C(=O)c1c(O)c3c(c(O)c1C2=O)C[C@@](O)(C(=O)CO)C[C@@H]3O[C@H]1C[C@H](N)[C@H](O)[C@H](C)O1` [DOXORUBICIN], the pIC50 is 6.23.
